The list shows a part of the results. The main result of the screen is listed elsewhere. These columns were measured beside it and carry no call. Compounds called inactive in the main read-out are mostly missing here. Words in brackets tell the shape of the fitted curve; partial curves, single points and poor fits give uncertain potencies.
Assay: qHTS Assay to Find Inhibitors of Chronic Active B-Cell Receptor Signaling
Settings: ABC-DLBCL IkBa-CBG/CBR reporter, luminescence ratio (green luciferase fused to IkBa over red control in TMD8 lymphoma cells), 4 h
In short: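 Doxycycline induced both beetle luciferases in TMD8 lymphoma cells; IKK-driven degradation limits the IkappaBalpha-fused green signal, while red luminescence normalises for cell number and nonspecific effects. Compounds tested up to 46 uM, 4 hrs.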

[1] = measured here: CBR red luminescence, cell number
[2] = measured here: IkBa-CBG green luminescence

Structure (SMILES)	AC50 [1]	AC50 [2]
COc1cccc(NC(=S)/C(=C(\[O-])c2cc(C)n(-c3ccccc3F)c2C)[n+]2ccc(N(C)C)cc2)c1	8.91 µM [falling, partial curve, poor fit]	
Cc1ccc(-c2onc3ccc(C(=O)O)cc23)cc1	10 µM [falling, partial curve, poor fit]	
CCn1c(CN2c3ccccc3Sc3ccccc32)n[nH]c1=S	35.5 µM [falling, single point]	
CN(CC(=O)Nc1ccccc1Cl)C(=O)CSc1nncn1C	29.1 µM [rising, partial curve, poor fit]	
CN1CCc2nc(SCCOc3ccccc3)c(C#N)cc2C1		3.26 µM [rising, full curve]
O=C(O)Cc1csc(NC(=O)c2ccco2)n1	0.731 µM [rising, full curve, poor fit]	
CCN(c1ccc(NS(=O)(=O)c2cc(Cl)ccc2Cl)cc1)C(C)C	32.6 µM [falling, single point]	
COc1ccc(N=CC2=C(O)c3ccccc3C2=O)cc1	16.4 µM [falling, single point]	
COc1ccc(C(=O)/C=C/C(=O)N(CC(=O)NC2CCCCC2)Cc2cccs2)c(O)c1	10 µM [rising, partial curve, poor fit]	
CC(C)OCCCn1c(=S)[nH]c2ccc(N3CCOCC3)cc2c1=O	0.731 µM [falling, full curve, poor fit]	
N#CCSc1nnc(COc2cccc3ccccc23)n1-c1ccccc1	25.1 µM [falling, single point]	
Cc1ccc(-c2nc(CS(=O)CC(=O)NCCN3CCCC3)c(C)o2)cc1 (centres undefined)	32.6 µM [rising, single point]	
COC(=O)CSc1nc(-c2cccs2)ccc1C#N	1 µM [rising, full curve]	
Cn1nccc1C(=O)N1CCCC(C(=O)c2cccc3ccccc23)C1 (centres undefined)	5.62 µM [rising, partial curve, poor fit]	
CCOC(=O)C1=C(COC(=O)/C=C/c2cccc(OC)c2)NC(=O)NC1C (centres undefined)	35.5 µM [falling, single point]	
Cn1c(SCC(=O)N2CCCc3ccccc32)nc2ccccc2c1=O	2.31 µM [falling, full curve]	
C(=N\n1cnnc1)/c1ccc(N2CCOCC2)s1	8.91 µM [rising, partial curve, poor fit]	
Cc1nc(Cl)c(C(=O)Nc2cccc(F)c2)c(C)c1Cl	1.26 µM [rising, partial curve, poor fit]	
Cc1ccc(C(=O)Cn2nnc(-c3ccccc3)n2)cc1	4.47 µM [rising, partial curve, poor fit]	
CC(C)(C)c1ccc(/C=C/C(=O)N2CCCCC2)cc1	2.51 µM [rising, full curve]	
O=c1c2ccccc2nc2oc3ccccc3n12	1.41 µM [rising, full curve, poor fit]	

Quoted from the listing:
Under AC50 [1], Cn1c(SCC(=O)N2CCCc3ccccc32)nc2ccccc2c1=O is listed with 2.31 µM [falling, full curve]
Under AC50 [1], Cc1ccc(C(=O)Cn2nnc(-c3ccccc3)n2)cc1 is listed with 4.47 µM [rising, partial curve, poor fit]

(more compounds)

Structure (SMILES)	AC50 [1]	AC50 [2]
O=C(Cn1c(=O)n(-c2ccccc2)c(=O)c2sccc21)NCc1ccccc1	11.2 µM [falling, partial curve]	
O=C(Nc1nc2ccc(S(=O)(=O)N3CCCCC3)cc2s1)c1cccnc1	0.411 µM [falling, partial curve, poor fit]	
Cc1cccc(C)c1Nc1sc(C(=O)c2ccccc2)c(N)c1C(=O)Nc1ccc(F)cc1	35.5 µM [falling, single point]	
CC(=O)c1ccc(C(=O)N2CCc3c([nH]c4ccccc34)C2c2ccccn2)s1 (centres undefined)	35.5 µM [falling, single point]	
O=C(c1cncc(Br)c1)N1CCN(c2ccc(N3CCOCC3)nn2)CC1	2.91 µM [falling, single point]	
CCOC(=O)c1oc2ccccc2c1CN1CCCCC1	5.01 µM [rising, single point]	
COc1ccc(CCNC(=O)c2ccc(CNc3nc(=S)[nH]c4ccccc34)cc2)cc1OC	35.5 µM [falling, single point]	
COc1cc(CNc2ccc(N3CCCC3)cc2)ccc1OCc1ccccc1	29.1 µM [falling, single point]	
Cc1ccc(O)c(NC(=O)c2cccc(NC(=O)c3ccco3)c2)c1	29.1 µM [falling, single point]	
CC(C)CC(=O)Nc1cc2nn(-c3ccccc3)nc2cc1Cl	1.64 µM [rising, partial curve]	
CCOC(=O)c1cc2cc(C)ccc2[nH]1	6.51 µM [rising, partial curve, poor fit]	
CSc1nc(-c2ccccc2)nc(C(Cl)Cl)n1	10.3 µM [rising, partial curve]	20.6 µM [falling, single point]
CC(Sc1nc(-c2ccc(F)cc2)cs1)C(=O)Nc1ccc(Cl)cn1 (centres undefined)	5.17 µM [falling, full curve]	
Cn1cccc1C(=O)NC(=O)COC(=O)c1ccccc1Sc1ccccc1C#N	5.62 µM [falling, single point]	
C=CCN1C(=O)C(O)(CC(=O)c2ccco2)c2cc(Br)ccc21 (centres undefined)	35.5 µM [rising, single point]	25.1 µM [falling, single point]
Cc1cc(C)nc(SCNC(=O)c2ccccc2)n1	8.2 µM [rising, partial curve, poor fit]	
CC(C)Oc1cccc(-c2cc(C(=O)N3CCN(c4ncccn4)CC3)c3ccccc3n2)c1	29.1 µM [falling, partial curve, poor fit]	
O=C(CCNC(=O)c1ccc(Br)cc1)Nc1cccc(S(=O)(=O)N2CCCCC2)c1	29.1 µM [falling, single point]	
COc1ccc(CNCc2cn(-c3cccc(F)c3)nc2-c2ccc(C)o2)cc1	25.1 µM [falling, single point]	
O=C(NC(=S)Nc1ccc(S(=O)(=O)NC2CCCCC2)cc1)c1cccs1	1.84 µM [falling, full curve]	
CCCCN1C(=O)CC(C(=O)O)C1c1ccc(OC)cc1 (centres undefined)	29.1 µM [rising, single point]	

Reference: PubChem BioAssay AID493014 (National Center for Advancing Translational Sciences (NCATS), 2011)
